Here are results for three molecules from article PMC7849821, “The deubiquitylase USP9X controls ribosomal stalling” (The Journal of Cell Biology, 2021).

By UniProt entry, the sequences of proteins in these tests, tags left out.
UniProt Q93008: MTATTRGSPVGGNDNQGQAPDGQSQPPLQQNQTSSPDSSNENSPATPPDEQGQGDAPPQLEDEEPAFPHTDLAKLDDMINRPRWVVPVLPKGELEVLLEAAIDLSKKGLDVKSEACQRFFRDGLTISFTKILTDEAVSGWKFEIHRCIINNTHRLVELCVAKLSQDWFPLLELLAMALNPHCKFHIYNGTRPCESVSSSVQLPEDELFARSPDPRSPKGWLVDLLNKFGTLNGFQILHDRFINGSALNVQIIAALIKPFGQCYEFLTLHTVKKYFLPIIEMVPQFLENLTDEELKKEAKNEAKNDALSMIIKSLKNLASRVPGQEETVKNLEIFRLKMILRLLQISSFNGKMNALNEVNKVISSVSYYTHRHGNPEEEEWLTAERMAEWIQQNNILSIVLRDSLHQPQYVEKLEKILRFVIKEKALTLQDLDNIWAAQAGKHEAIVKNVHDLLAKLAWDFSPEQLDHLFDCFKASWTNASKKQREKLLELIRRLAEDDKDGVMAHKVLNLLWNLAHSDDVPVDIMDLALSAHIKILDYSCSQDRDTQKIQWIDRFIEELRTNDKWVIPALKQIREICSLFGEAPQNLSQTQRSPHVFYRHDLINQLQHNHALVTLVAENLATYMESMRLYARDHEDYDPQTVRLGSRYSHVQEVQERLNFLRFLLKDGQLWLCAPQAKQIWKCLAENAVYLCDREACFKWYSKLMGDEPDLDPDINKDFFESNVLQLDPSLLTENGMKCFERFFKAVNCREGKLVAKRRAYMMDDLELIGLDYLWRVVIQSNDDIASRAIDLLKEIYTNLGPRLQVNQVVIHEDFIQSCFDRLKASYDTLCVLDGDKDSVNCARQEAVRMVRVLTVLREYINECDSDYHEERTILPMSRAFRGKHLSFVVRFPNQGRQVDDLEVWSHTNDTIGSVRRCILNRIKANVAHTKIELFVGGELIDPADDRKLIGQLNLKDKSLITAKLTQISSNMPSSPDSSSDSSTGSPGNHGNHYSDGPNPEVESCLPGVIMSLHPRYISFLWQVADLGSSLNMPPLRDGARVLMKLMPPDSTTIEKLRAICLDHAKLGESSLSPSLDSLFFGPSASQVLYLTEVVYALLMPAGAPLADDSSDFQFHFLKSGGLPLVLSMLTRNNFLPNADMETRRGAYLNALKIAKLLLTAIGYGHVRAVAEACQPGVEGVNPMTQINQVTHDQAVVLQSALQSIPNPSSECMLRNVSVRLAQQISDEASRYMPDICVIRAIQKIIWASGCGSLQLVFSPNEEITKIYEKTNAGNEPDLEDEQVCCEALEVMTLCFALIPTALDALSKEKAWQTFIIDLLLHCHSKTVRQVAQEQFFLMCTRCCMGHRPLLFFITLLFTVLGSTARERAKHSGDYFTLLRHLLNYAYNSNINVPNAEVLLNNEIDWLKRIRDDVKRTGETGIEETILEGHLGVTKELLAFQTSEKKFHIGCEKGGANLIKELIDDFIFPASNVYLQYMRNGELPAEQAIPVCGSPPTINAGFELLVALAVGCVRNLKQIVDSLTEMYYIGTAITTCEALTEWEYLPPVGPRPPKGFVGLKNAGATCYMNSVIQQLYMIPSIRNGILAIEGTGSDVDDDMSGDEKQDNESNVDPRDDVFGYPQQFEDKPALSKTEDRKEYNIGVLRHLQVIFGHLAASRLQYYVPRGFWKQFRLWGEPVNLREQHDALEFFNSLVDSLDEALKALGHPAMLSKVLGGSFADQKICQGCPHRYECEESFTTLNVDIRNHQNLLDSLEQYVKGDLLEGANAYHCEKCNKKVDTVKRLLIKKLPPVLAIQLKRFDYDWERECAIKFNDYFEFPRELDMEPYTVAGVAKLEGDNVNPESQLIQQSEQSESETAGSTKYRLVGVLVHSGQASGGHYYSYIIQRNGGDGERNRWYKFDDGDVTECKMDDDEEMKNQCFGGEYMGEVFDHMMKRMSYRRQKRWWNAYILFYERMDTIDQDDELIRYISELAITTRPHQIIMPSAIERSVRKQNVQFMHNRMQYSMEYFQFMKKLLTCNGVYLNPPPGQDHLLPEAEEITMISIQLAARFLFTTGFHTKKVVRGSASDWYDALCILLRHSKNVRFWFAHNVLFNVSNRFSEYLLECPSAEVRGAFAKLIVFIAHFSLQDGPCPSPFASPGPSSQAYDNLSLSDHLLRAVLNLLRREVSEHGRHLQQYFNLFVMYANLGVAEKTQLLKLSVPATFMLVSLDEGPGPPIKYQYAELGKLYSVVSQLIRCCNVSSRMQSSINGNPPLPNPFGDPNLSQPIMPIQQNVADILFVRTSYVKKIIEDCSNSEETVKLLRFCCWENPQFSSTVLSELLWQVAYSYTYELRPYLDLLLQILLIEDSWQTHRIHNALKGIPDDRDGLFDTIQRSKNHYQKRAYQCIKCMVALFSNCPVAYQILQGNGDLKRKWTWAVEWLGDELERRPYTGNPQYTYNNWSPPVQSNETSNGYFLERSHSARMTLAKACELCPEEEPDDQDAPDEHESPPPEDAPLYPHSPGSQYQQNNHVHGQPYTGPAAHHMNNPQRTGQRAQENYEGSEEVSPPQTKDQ

What all share (test): co-IP; lysates (TNTE buffer: 10 mM Tris-Cl pH 7.5, 150 mM NaCl, 0.3% Triton X-100, 5 mM EDTA) of transfected HEK293T cells, 750 ug protein on FLAG affinity gel 2 h at 4°C, washed with TBS, immunoblot
The target of one test is T1, FLAG-MKRN1 (UniProt Q9UHC7).
T1 sequence: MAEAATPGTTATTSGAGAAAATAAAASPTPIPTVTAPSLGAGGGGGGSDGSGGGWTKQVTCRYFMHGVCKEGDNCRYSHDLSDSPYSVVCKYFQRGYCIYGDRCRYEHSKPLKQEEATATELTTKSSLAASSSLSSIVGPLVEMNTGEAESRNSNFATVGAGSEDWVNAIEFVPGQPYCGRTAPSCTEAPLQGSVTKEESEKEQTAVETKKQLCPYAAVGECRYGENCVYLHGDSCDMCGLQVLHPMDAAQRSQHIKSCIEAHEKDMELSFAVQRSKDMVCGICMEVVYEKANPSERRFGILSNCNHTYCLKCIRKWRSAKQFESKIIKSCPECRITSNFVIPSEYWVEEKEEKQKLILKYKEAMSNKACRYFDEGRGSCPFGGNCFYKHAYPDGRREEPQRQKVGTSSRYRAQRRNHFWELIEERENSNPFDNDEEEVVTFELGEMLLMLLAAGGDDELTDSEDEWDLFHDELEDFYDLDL

A further test addresses T2, ZNF598-FLAG (human) (UniProt Q86UK7).
T2 sequence: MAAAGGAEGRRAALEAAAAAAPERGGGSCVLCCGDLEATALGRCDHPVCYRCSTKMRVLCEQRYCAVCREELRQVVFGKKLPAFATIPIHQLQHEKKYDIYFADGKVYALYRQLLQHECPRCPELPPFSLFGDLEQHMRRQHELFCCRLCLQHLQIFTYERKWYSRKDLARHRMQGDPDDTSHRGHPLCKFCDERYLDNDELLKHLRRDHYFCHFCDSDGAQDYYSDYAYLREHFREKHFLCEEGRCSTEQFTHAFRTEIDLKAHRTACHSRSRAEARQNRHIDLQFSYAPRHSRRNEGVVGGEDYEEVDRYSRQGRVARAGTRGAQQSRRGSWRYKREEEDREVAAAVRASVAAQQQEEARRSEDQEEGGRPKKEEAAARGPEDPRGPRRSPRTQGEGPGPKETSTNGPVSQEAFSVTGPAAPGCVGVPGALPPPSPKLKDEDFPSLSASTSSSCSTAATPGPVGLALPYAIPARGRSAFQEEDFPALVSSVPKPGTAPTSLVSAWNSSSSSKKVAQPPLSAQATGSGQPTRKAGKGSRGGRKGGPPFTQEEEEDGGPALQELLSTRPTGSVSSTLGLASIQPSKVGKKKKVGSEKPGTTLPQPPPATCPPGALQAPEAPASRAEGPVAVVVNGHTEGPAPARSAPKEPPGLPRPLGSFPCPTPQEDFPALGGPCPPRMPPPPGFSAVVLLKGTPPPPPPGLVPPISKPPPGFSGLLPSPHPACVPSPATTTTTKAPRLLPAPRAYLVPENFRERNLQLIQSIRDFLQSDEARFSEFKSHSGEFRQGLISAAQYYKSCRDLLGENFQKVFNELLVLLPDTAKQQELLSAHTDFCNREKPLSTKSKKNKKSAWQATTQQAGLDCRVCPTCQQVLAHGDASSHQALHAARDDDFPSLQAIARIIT

For test [1], the target named is T3, MKRN2-FLAG (UniProt Q9H000).
T3 sequence: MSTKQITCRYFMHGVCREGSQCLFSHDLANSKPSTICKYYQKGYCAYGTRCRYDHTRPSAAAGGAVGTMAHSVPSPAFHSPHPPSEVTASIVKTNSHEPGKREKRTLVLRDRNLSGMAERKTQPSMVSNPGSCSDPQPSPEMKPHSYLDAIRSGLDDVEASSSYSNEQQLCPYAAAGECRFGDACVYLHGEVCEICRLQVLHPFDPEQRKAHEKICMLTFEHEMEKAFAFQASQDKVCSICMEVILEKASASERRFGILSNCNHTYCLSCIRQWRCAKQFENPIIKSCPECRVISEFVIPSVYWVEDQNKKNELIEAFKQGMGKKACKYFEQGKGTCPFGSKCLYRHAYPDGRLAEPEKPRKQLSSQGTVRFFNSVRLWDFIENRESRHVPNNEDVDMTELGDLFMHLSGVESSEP

Another test addresses T4, FLAG-MKRN1, Q9UHC7.
T4 chain: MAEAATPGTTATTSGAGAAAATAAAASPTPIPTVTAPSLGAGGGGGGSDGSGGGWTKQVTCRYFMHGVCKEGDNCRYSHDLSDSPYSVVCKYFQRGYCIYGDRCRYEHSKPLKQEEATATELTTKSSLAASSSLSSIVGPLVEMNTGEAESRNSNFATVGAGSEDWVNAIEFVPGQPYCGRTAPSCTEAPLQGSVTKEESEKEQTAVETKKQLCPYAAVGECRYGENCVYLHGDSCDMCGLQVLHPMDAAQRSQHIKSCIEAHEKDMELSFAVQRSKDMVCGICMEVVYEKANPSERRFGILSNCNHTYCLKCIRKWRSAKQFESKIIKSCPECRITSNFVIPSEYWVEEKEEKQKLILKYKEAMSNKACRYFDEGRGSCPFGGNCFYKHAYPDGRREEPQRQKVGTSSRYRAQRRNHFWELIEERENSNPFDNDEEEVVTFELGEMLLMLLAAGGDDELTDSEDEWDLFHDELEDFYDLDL
Conditions: remark: other sources report otherwise.

Test [2] concerns the target T3, MKRN2-FLAG. This is another data set of the same source.

Read-outs that look alike come from different tables or passages of the source. No constants are given. Whether binding was seen depends on the method and setting. In cells and extracts the contact can be indirect. Some binding calls cover weakened binding; strength is not graded here. Where a sequence is shown, tags or fusion partners need not be part of it.

Turning to “USP9X (from UniProt Q93008 1-2554) (enzyme)”, the binding entry in the test with FLAG-MKRN1, in the test with ZNF598-FLAG (human) and in the test with MKRN2-FLAG [1] was “binds” in each case.

B1: ZNF598, Q86UK7 1-904 (enzyme)
chain: MAAAGGAEGRRAALEAAAAAAPERGGGSCVLCCGDLEATALGRCDHPVCYRCSTKMRVLCEQRYCAVCREELRQVVFGKKLPAFATIPIHQLQHEKKYDIYFADGKVYALYRQLLQHECPRCPELPPFSLFGDLEQHMRRQHELFCCRLCLQHLQIFTYERKWYSRKDLARHRMQGDPDDTSHRGHPLCKFCDERYLDNDELLKHLRRDHYFCHFCDSDGAQDYYSDYAYLREHFREKHFLCEEGRCSTEQFTHAFRTEIDLKAHRTACHSRSRAEARQNRHIDLQFSYAPRHSRRNEGVVGGEDYEEVDRYSRQGRVARAGTRGAQQSRRGSWRYKREEEDREVAAAVRASVAAQQQEEARRSEDQEEGGRPKKEEAAARGPEDPRGPRRSPRTQGEGPGPKETSTNGPVSQEAFSVTGPAAPGCVGVPGALPPPSPKLKDEDFPSLSASTSSSCSTAATPGPVGLALPYAIPARGRSAFQEEDFPALVSSVPKPGTAPTSLVSAWNSSSSSKKVAQPPLSAQATGSGQPTRKAGKGSRGGRKGGPPFTQEEEEDGGPALQELLSTRPTGSVSSTLGLASIQPSKVGKKKKVGSEKPGTTLPQPPPATCPPGALQAPEAPASRAEGPVAVVVNGHTEGPAPARSAPKEPPGLPRPLGSFPCPTPQEDFPALGGPCPPRMPPPPGFSAVVLLKGTPPPPPPGLVPPISKPPPGFSGLLPSPHPACVPSPATTTTTKAPRLLPAPRAYLVPENFRERNLQLIQSIRDFLQSDEARFSEFKSHSGEFRQGLISAAQYYKSCRDLLGENFQKVFNELLVLLPDTAKQQELLSAHTDFCNREKPLSTKSKKNKKSAWQATTQQAGLDCRVCPTCQQVLAHGDASSHQALHAARDDDFPSLQAIARIIT
B1: in the test with FLAG-MKRN1, Q9UHC7, the binding result is “binds”.

B2: ZNF598 (enzyme, UniProt Q86UK7 1-904)
chain: MAAAGGAEGRRAALEAAAAAAPERGGGSCVLCCGDLEATALGRCDHPVCYRCSTKMRVLCEQRYCAVCREELRQVVFGKKLPAFATIPIHQLQHEKKYDIYFADGKVYALYRQLLQHECPRCPELPPFSLFGDLEQHMRRQHELFCCRLCLQHLQIFTYERKWYSRKDLARHRMQGDPDDTSHRGHPLCKFCDERYLDNDELLKHLRRDHYFCHFCDSDGAQDYYSDYAYLREHFREKHFLCEEGRCSTEQFTHAFRTEIDLKAHRTACHSRSRAEARQNRHIDLQFSYAPRHSRRNEGVVGGEDYEEVDRYSRQGRVARAGTRGAQQSRRGSWRYKREEEDREVAAAVRASVAAQQQEEARRSEDQEEGGRPKKEEAAARGPEDPRGPRRSPRTQGEGPGPKETSTNGPVSQEAFSVTGPAAPGCVGVPGALPPPSPKLKDEDFPSLSASTSSSCSTAATPGPVGLALPYAIPARGRSAFQEEDFPALVSSVPKPGTAPTSLVSAWNSSSSSKKVAQPPLSAQATGSGQPTRKAGKGSRGGRKGGPPFTQEEEEDGGPALQELLSTRPTGSVSSTLGLASIQPSKVGKKKKVGSEKPGTTLPQPPPATCPPGALQAPEAPASRAEGPVAVVVNGHTEGPAPARSAPKEPPGLPRPLGSFPCPTPQEDFPALGGPCPPRMPPPPGFSAVVLLKGTPPPPPPGLVPPISKPPPGFSGLLPSPHPACVPSPATTTTTKAPRLLPAPRAYLVPENFRERNLQLIQSIRDFLQSDEARFSEFKSHSGEFRQGLISAAQYYKSCRDLLGENFQKVFNELLVLLPDTAKQQELLSAHTDFCNREKPLSTKSKKNKKSAWQATTQQAGLDCRVCPTCQQVLAHGDASSHQALHAARDDDFPSLQAIARIIT
B2: the binding result in the test with MKRN2-FLAG [2] is recorded as “binds”.
